Source: patent US20240376531

System: Nb.BssSI nicking endonuclease
Experiment: enzyme reaction in vitro
Settings: nick initiating T7 replisome SDA; 10 mM Mg acetate, 37 C; purified recombinant protein; protein details: New England Biolabs

Sequence: CACGAG (double strand) [BssSI recognition site in lambda DNA]
- activity on this sequence: active

The exact form of at least one protein or probe is not confirmed.
